Assay results published in PubChem BioAssay AID540276 (National Center for Advancing Translational Sciences (NCATS), 2011).
Where “and” joins values, the source holds several entries; their conditions need not be identical. Identical values can stand only once. Among all 300,000 compounds or so, about 5,400 (1.8%) were called active. The shares of active, inactive and inconclusive entries below differ from those in the screen. Calls come from the whole dose curve; tested in HEK293 cells. Potencies beside an inconclusive call are fits to weak or partial responses and may not hold up.

Experiment: qHTS for inhibitors of binding or entry into cells for Marburg Virus
Conditions: Marburg virus pseudotyped entry inhibition, cell reporter; activity change, negative = inhibition: at 37.8 µM (top of the series) unless noted
% is set by controls: 0 for no effect and ±100 for the full control effect; potency is the fitted concentration of half-maximal effect.

Structure (SMILES)	Potency	activity change, negative = inhibition
Cc1cc(OCCn2cc(C(=O)c3ccco3)c3ccccc32)ccc1Cl	inconclusive: 15.8 µM [inhibitor, single point]	
CC1Cc2ccccc2N1CC(=O)NCc1ccccc1Cl (configuration not stated)	inconclusive: 31.6 µM [activator, single point]	
Cc1ccc(S(=O)(=O)N2CCOCC2)cc1C(=O)N(C)CCOc1ccc(Cl)cc1	inconclusive: 35.5 µM [inhibitor, single point]	
O=C(COc1cccc2c1CCN(Cc1ccc(Cl)cc1)C2=O)N1CCOCC1	inconclusive: 5.62 µM [inhibitor, single point]	
Cc1cc(OCC(=O)Nc2ccncc2)cc(C)c1Br	inconclusive: 35.5 µM [inhibitor, single point]	
CCOC(=O)c1c(C)[nH]c(C(=O)CN2C(=O)NC3(CCCC3)C2=O)c1C		inactive: 22.8% [at 46.1 µM]
CCCOc1ccccc1C1CC(=O)Nc2cc3c(cc21)OCCO3 (configuration not stated)	active: 2.82 µM	
Cc1ccc(C(=O)Nc2cccc(C(=O)O)c2)cc1	inconclusive: 4.61 µM [inhibitor, partial curve, poor fit]	
O=C1/C(=C/c2ccc(Cl)cc2)NC(=S)N1Cc1cccnc1	inconclusive: 7.94 µM [inhibitor, partial curve, poor fit]	
O=[N+]([O-])c1ccccc1N/N=C\c1ccccc1F	inconclusive: 1 µM [activator, partial curve, poor fit]	
COc1cccc(OC)c1C(=O)Nc1nc2ccc([N+](=O)[O-])cc2s1	inconclusive: 0.562 µM [activator, full curve, poor fit]	
O=C(CSc1ccccc1)Nc1ccc2c(c1)OCCO2	inconclusive: 7.08 µM [inhibitor, partial curve, poor fit]	
CCCn1c(O)c(/C=C2\C=NN=C2c2ccccc2)sc1=S	inconclusive: 14.6 µM [inhibitor, partial curve, poor fit]	
O=C(OCC1OC(n2ccc(=O)[nH]c2=O)C2OC12)c1ccccc1 (configuration not stated)		inactive: 3.75% [at 46.1 µM]
COc1ccc(NCc2nnc(SCC(=O)NCc3ccccc3)n2-c2ccccc2OC)cc1	inconclusive: 0.112 µM [inhibitor, full curve, poor fit]	
COC(=O)CNC(c1ccccc1)c1cc(C)ccc1NC(=O)c1cccc(Cl)c1 (configuration not stated)	inconclusive: 18.4 µM [inhibitor, partial curve, poor fit]	
Cc1cc(Nc2cc(Cl)ccc2C)n2nc(Cc3ccccc3)nc2n1		inactive: -4.92% [at 46.1 µM]
CCN(CC(=O)Nc1ccc2c(c1)OCCO2)S(=O)(=O)c1ccc(F)cc1		inactive: 0.682% [at 46.1 µM]
COc1ccc(OCCSc2ncn[nH]2)cc1	inconclusive: 29.1 µM [inhibitor, single point]	
Cn1ccnc1Sc1nc2ccccc2nc1NS(=O)(=O)c1ccccc1		inactive: 2.08%
Cc1ccc(/C=C2\CCn3c2nc2cc(C(=O)O)ccc2c3=O)c(C)c1		inactive: -23.6% [at 46.1 µM]
CCOC(=O)c1ccc(Nc2nc(C(=O)OCC)nc3ccccc23)cc1	inconclusive: 35.5 µM [inhibitor, single point]	
CCC(=O)Nc1cccc(-n2nnnc2SCC(=O)c2ccc(C)c(C)c2)c1	inconclusive: 35.5 µM [inhibitor, single point]	

Structure (SMILES)	Potency	activity change, negative = inhibition
CNC(=O)CN(c1ccc(C(C)C)cc1)S(C)(=O)=O	inconclusive: 16.4 µM [activator, partial curve, poor fit]	
CC(=O)Nc1nonc1-c1nc2ccccc2n1Cc1ccccc1		inactive: -27.9%
CC(=O)c1ccc(S(=O)(=O)NCCC(=O)OCC(=O)N(Cc2ccccc2)C(C)(C)C)cc1	inconclusive: 0.631 µM [activator, full curve, poor fit]	
CC(=O)c1cccc(OCC(O)CN2CCN(C(=O)c3ccco3)CC2)c1 (configuration not stated)	inconclusive: 35.5 µM [activator, single point]	
Cc1ccccc1C(=O)NNC(=S)NC(=O)c1ccc(Cl)cc1Cl	inconclusive: 29.1 µM [inhibitor, single point]	
CN(C)c1ccc(CNc2nc(-c3ccccc3)nn2S(C)(=O)=O)cc1	inconclusive: 35.5 µM [inhibitor, single point]	
O=C(CP(=O)(c1ccccc1)c1ccccc1)Nc1nc2ccccc2s1		inactive: -4.72%
CC(C)COc1ccc(S(=O)(=O)NNC(=O)c2cc3ccccc3o2)cc1	inconclusive: 6.31 µM [activator, single point]	
CCCN(CCC)S(=O)(=O)c1ccc(C(=O)O)cc1	inconclusive: 0.731 µM [activator, full curve, poor fit]	
O=C(NC1CCCC1)c1cc(Cl)ccc1[N+](=O)[O-]	inconclusive: 7.94 µM [inhibitor, partial curve, poor fit]	
C=CCOc1c(Br)cc(CNc2ccc(NC(=O)C(C)C)cc2)cc1OCC		inactive: 7%
CCOc1ccccc1CN1CCC(n2nccc2NC(=O)C2CCCC2)CC1	inconclusive: 11.2 µM [inhibitor, partial curve, poor fit]	
CCc1ccc(NC(=O)COc2cccc(-n3cnnn3)c2)cc1	inconclusive: 15.8 µM [inhibitor, single point]	
O=S(=O)(c1ccc(Cl)c(Cl)c1)c1snnc1-c1ccccc1	active: 5.01 µM	
COc1ccc(Cl)cc1NC(=O)Nc1ccc(C(=O)N2CCCC2)cc1	inconclusive: 1.12 µM [activator, full curve, poor fit]	
O=C(c1ccc(F)cc1)N1CCN2C(=O)c3ccccc3C12c1ccccc1 (configuration not stated)		inactive: 9.31%
O=C(O)C1C2C=CC(C2)C1C(=O)NCc1cccc(Cl)c1 (configuration not stated)	inconclusive: 3.55 µM [inhibitor, full curve, poor fit]	
O=C(CCn1cnc(-c2ccccc2)c1-c1ccccc1)N/N=C/c1ccccc1O	inconclusive: 25.9 µM [inhibitor, partial curve, poor fit]	
CCC(=O)c1ccc(OC(=O)/C=C/c2cc(OC)c(OC)c(OC)c2)cc1	inconclusive: 35.5 µM [activator, single point]	
CCOC(=O)c1c(C)[nH]c(C)c1C(=O)COC(=O)c1sccc1C		inactive: 5.35%
COc1ccc(C)cc1NC(=O)CN1C(=O)COc2ccc(S(=O)(=O)N3CCCCCC3)cc21	inconclusive: 1.12 µM [inhibitor, full curve, poor fit]	
Cc1ccc(C(=O)Nc2ccc3c(c2)OCO3)cc1S(=O)(=O)N1CCCCC1	inconclusive: 7.94 µM [inhibitor, partial curve, poor fit]	
CCC(Oc1cc(Cl)ccc1Cl)C(=O)NNC(=O)CCC(=O)O (configuration not stated)	inconclusive: 4.47 µM [activator, single point]	

Structure (SMILES)	Potency	activity change, negative = inhibition
COc1ccc(OC)c(-c2csc(NC(=O)Cc3ccccc3F)n2)c1	inconclusive: 35.5 µM [inhibitor, single point]	
CCOc1ccc(CN2CCN(CC(O)Cn3c4ccccc4c4ccccc43)CC2)cc1 (configuration not stated)	inactive and inconclusive: 18.4 µM [inhibitor, single point]	
COc1ccc2cc(CN(C(=O)Nc3ccccc3)C3CCCC3)c(=O)[nH]c2c1	inconclusive: 0.259 µM [activator, single point]	
Oc1ccccc1Oc1c(F)c(F)nc(N2CCCC2)c1F	inconclusive: 4.61 µM [inhibitor, partial curve, poor fit]	
c1coc(CNCCc2c[nH]c3ccccc23)c1	inconclusive: 1.78 µM [inhibitor, full curve]	
Cc1cc(NC(=O)CCc2ccc(-c3ccccc3)o2)no1	inconclusive: 10 µM [inhibitor, partial curve, poor fit]	
CCOc1ccc(/C=N/n2cc(-c3ccccc3)[nH]c2=S)cc1		inactive: 0.0977%
COc1ccc(CCn2c(-c3ccc(OC)cc3)nc3c(c(=O)c4ccccc4n3C)c2=O)cc1	inconclusive: 11.2 µM [inhibitor, partial curve, poor fit]	
CCOC(=O)C1=C(N)N2C(=O)C(C)SC2=C(C(=O)OC)C1c1ccccc1OC (configuration not stated)	inconclusive: 6.31 µM [activator, single point]	
O=C(Cn1cnc2c(cnn2-c2ccc(F)cc2)c1=O)NCc1ccco1	inconclusive: 3.16 µM [inhibitor, full curve]	
Cc1cc(C(C)(C)C)oc1C(=O)N(CC(=O)NC1CCCC1)Cc1ccccc1		inactive: -17.9%
O=[N+]([O-])c1ccc(N2CCCCC2)c2ncccc12	inconclusive: 5.01 µM [inhibitor, full curve, poor fit]	
Cc1cc(C(=O)N2CCCC(CNS(=O)(=O)c3cccs3)C2)nn1C (configuration not stated)		inactive: 22.7% [at 46.1 µM]
N#Cc1c(-c2ccccc2)nc(SCC(=O)N(c2ccccc2)c2ccccc2)[nH]c1=O	inconclusive: 12.6 µM [activator, single point]	
CCOC(=O)c1nc(Nc2ccccc2C)c2ccccc2n1	inconclusive: 35.5 µM [inhibitor, single point]	
Cc1c(C(=O)O)c(-c2ccccc2)nn1-c1ccccc1		inactive: 5.32% [at 46.1 µM]
CCCNNC(=O)C(O)(c1ccccc1)c1ccccc1	inconclusive: 10 µM [activator, partial curve, poor fit]	
Cc1coc2c1c(C)cc1oc(=O)c(CC(=O)NCc3ccc(Cl)cc3)c(C)c12		inactive: 5.02% [at 46.1 µM]
COc1cccc(OC)c1C(=O)Nc1nc(-c2ccccc2)cs1		inactive: -9.62% [at 46.1 µM]
Cc1ccc2nc(-c3c[nH]c4ccccc34)c(Nc3ccccc3)n2c1	inconclusive: 35.5 µM [activator, single point]	
N#C/C(=C/c1ccc(O)c(O)c1)C(N)=S		inactive: 22.9%
